Values of other authors as cited in patent US20060198906A1, “Compositions and Method to Increase Serum Levels of HDL cholesterol and Lower the Risk of Cardiovascular Disease” (SAMI LABS LIMITED, priority 2005, published 2006).
At least one compound was matched to its structure with a doubt left.

Details: maximum recommended dosage

Compound: CC(C)n1c(/C=C/C(O)CC(O)CC(=O)O)c(-c2ccc(F)cc2)c2ccccc21 (stereo not shown) [Fluvastatin]
- decrease of LDL levels: 22-36%
